# Data reported in patent US6911550B2, “Derivatives of seleno-amino acids with improved bioavailability and method for their preparation” (priority 2003, dated 2005).
# For at least one compound, name, drawing or mass did not settle the structure.
# Test system: glutathione peroxidase
# Assay: Glutathione peroxidase activity in selenium-depleted lambs fed selenium sources
# Type: in vivo
# Settings: day 14
# Description: […] lambs with average weight of 18.5 kg were used. […] Lambs were weaned at approximately two months of age and placed in plastic pens with plastic feeders and stainless steel waterers. For 56 days lambs were fed feedstuff low in selenium. Jugular blood samples were obtained from all lambs on days 0, 28 and 56. At the end of the 56-day depletion period, lambs were stratified by weight and randomly assigned to […]. The treatments consisted of: 1) Control, 2) sodium selenite, 3) L-selenomethionine and 4) zinc L-selenomethionine. The selenium sources were added to provide 0.05 ppm of supplemental selenium for 28 days and then the amount of selenium from each source was increased to 0.1 ppm for additional 28 days. Blood samples were collected via jugular puncture on days 0, 14, 28 and 56. Whole blood and plasma glutathione peroxidase activity in samples obtained on days 0, 14, 28, and 56. Plasma selenium was measured in samples obtained on days 0, 28, and 56. Six lambs from each treatment were slaughtered at the end of the study and samples of liver, kidney, muscle, and heart were obtained for the determination of selenium and glutathione peroxidase activities.
structure (smiles),measurement,value
"O=[Se](O)O [Sodium Selenite, reference compound]","Whole blood glutathione peroxidase activity, difference between selenium sources",no difference
